{"source": "the supplement of paper PMC5949888", "note": "Most values lie at the floor of the assay. Slopes are relative: functional sequences can read slightly below zero.", "data": [{"system": "Saccharomyces cerevisiae PS128 hsf1 delta, HSF1(1-493) fusion", "assay": "growth estimate (transactivation domain function in HSF1 fusion, heat-shock survival) (a.u. (slope of normalised read count over time)); higher = stronger growth at 37°C, i.e. more transactivation activity", "conditions": "library: random library", "experimental": "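Random 60-nt DNA library encoding peptides of up to 20 aa, fused to the C-terminus of yeast HSF1 residues 1-493 (C-terminal TAD deleted) and expressed from the native HSF1 promoter on a CEN plasmid in hsf1-deleted S. cerevisiae PS128. Cells were selected at 37°C on -trp 5-FOA plates for 0, 2, 4, 6 and 8 days and amplicons were sequenced. Growth estimate is the slope of a robust linear fit of total-sum-normalised read counts (normalised to the first time point) over time, using at least 2 replicates. Sequences are classed functional (TAD activity) above a threshold of -0.13, set from stop-codon control sequences.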", "values": [{"substance": "HRQPIKMARPMLRWISSRAL", "growth estimate": "< -0.25"}, {"substance": "HRQRRR", "growth estimate": "< -0.25"}, {"substance": "HRRHAYTTKVGRVIKVLVVS", "growth estimate": "< -0.25"}, {"substance": "HRRHRPGPGDNLTA", "growth estimate": "< -0.25"}, {"substance": "HRRLDQSPDLDAIRLGD", "growth estimate": "< -0.25"}, {"substance": "HRSISNATSNNVNRALLECV", "growth estimate": "< -0.25"}, {"substance": "HRSVISTQL", "growth estimate": -0.0616}, {"substance": "HRSVTLYWHNFGLSWLPGQC", "growth estimate": "< -0.25"}, {"substance": "HRTHHLSMGRFRFSMNSTRA", "growth estimate": "< -0.25"}, {"substance": "HRTQGE", "growth estimate": "< -0.25"}, {"substance": "HRTY", "growth estimate": "< -0.25"}, {"substance": "HRVAVQCHPEAATCIRPTAR", "growth estimate": "< -0.25"}, {"substance": "HRVPAGISVEVHLSRILCYA", "growth estimate": "< -0.25"}, {"substance": "HRVPMRGFASRFENWTGVAW", "growth estimate": "< -0.25"}, {"substance": "HRY", "growth estimate": "< -0.25"}, {"substance": "HSAARNQTACFWLRGWIHPA", "growth estimate": "< -0.25"}, {"substance": "HSAGFQ", "growth estimate": "< -0.25"}, {"substance": "HSAGRHSSALAWAAYATPTF", "growth estimate": "< -0.25"}, {"substance": "HSCGRASHVRTLVSQLLGPV", "growth estimate": "< -0.25"}, {"substance": "HSDIDRELSRVRETSEVNDC", "growth estimate": "< -0.25"}, {"substance": "HSEGIGSPGGLEPPDLALLK", "growth estimate": "< -0.25"}, {"substance": "HSFIRRFLACFVFTFRGAFS", "growth estimate": "< -0.25"}, {"substance": "HSGGRK", "growth estimate": "< -0.25"}, {"substance": "HSH", "growth estimate": "< -0.25"}, {"substance": "HSMPMRDLSAEGP", "growth estimate": "< -0.25"}, {"substance": "HSPCEQSTGSESFPRGTGSA", "growth estimate": "< -0.25"}, {"substance": "HSPDKEILIRQNGIKPANWK", "growth estimate": "< -0.25"}, {"substance": "HSQAGEASRYKLIATTSES", "growth estimate": "< -0.25"}, {"substance": "HSQPLQDNCVDRNSCFAQRG", "growth estimate": "< -0.25"}, {"substance": "HSRKALRRISMASGEL", "growth estimate": "< -0.25"}, {"substance": "HSRNPSDTATSHVGFGHAAS", "growth estimate": "< -0.25"}, {"substance": "HSRS", "growth estimate": "< -0.25"}, {"substance": "HSRVHPFRCAGSQQGR", "growth estimate": "< -0.25"}, {"substance": "HSRVLPDARIRILRGV", "growth estimate": "< -0.25"}, {"substance": "HSRYRV", "growth estimate": "< -0.25"}, {"substance": "HSSGATSLVPRCAAA", "growth estimate": "< -0.25"}, {"substance": "HSSGGSWRVTGAWLLAVYPC", "growth estimate": "< -0.25"}, {"substance": "HSSTCLT", "growth estimate": "< -0.25"}, {"substance": "HSTSALLYHTWSGAVGGCTP", "growth estimate": "< -0.25"}, {"substance": "HSTSRSGVWFPAEWA", "growth estimate": "< -0.25"}, {"substance": "HSWLRVVPIRHMYEYVVW", "growth estimate": -0.25}, {"substance": "HTANPIQGILHKA", "growth estimate": "< -0.25"}, {"substance": "HTAYNPYRALAGTSWLKQPK", "growth estimate": "< -0.25"}, {"substance": "HTCE", "growth estimate": -0.111}, {"substance": "HTCSRQRGNIERSGYTMGGL", "growth estimate": "< -0.25"}, {"substance": "HTD", "growth estimate": "< -0.25"}, {"substance": "HTG", "growth estimate": "< -0.25"}, {"substance": "HTIRIGDM", "growth estimate": "< -0.25"}, {"substance": "HTIT", "growth estimate": "< -0.25"}, {"substance": "HTLLGRRSAGRSVSSSIIVY", "growth estimate": "< -0.25"}, {"substance": "HTNAESGRE", "growth estimate": "< -0.25"}, {"substance": "HTTCSRARYGSAHTAIVA", "growth estimate": "< -0.25"}, {"substance": "HTVCLLAMGLLPISIVFNL", "growth estimate": "< -0.25"}, {"substance": "HTWTMFANELPAFLPTTAMH", "growth estimate": 0.0093}, {"substance": "HTY", "growth estimate": "< -0.25"}, {"substance": "HVAALRGFMRHSERIFWLAV", "growth estimate": "< -0.25"}, {"substance": "HVAEQFVMRLSPRGLLLR", "growth estimate": "< -0.25"}, {"substance": "HVARPTPTAGSVCWFG", "growth estimate": "< -0.25"}, {"substance": "HVDITVRARSSRRIVAALRG", "growth estimate": "< -0.25"}, {"substance": "HVEAHRGIPVPPDRYTGIHS", "growth estimate": "< -0.25"}, {"substance": "HVEVIAYPKRPAACGTPIVP", "growth estimate": "< -0.25"}, {"substance": "HVFTLFGRDVLFSYGPTGTE", "growth estimate": "< -0.25"}, {"substance": "HVFWASR", "growth estimate": "< -0.25"}, {"substance": "HVGCWDLRQGTR", "growth estimate": "< -0.25"}, {"substance": "HVGSICHITV", "growth estimate": "< -0.25"}, {"substance": "HVPRCWPLYIAMLVHNVGLP", "growth estimate": "< -0.25"}, {"substance": "HVPSLIVIQATLWLAKSGVP", "growth estimate": "< -0.25"}, {"substance": "HVPSLL", "growth estimate": "< -0.25"}, {"substance": "HVPVRPERSKNGWTRTRITG", "growth estimate": "< -0.25"}, {"substance": "HVQY", "growth estimate": "< -0.25"}, {"substance": "HVRFGLASGESKRRAANIFV", "growth estimate": "< -0.25"}, {"substance": "HVT", "growth estimate": "< -0.25"}, {"substance": "HVTVKFLSRQS", "growth estimate": "< -0.25"}, {"substance": "HVTYPGDGNNVHREGSKAKA", "growth estimate": "< -0.25"}, {"substance": "HVVSCVLLIPVKSFPPLGHL", "growth estimate": "< -0.25"}, {"substance": "HVWFGPGYGFCG", "growth estimate": "< -0.25"}, {"substance": "HWAAISTTIRIPACSERAAG", "growth estimate": "< -0.25"}, {"substance": "HWCQTANGVSYRVMCFLKPG", "growth estimate": "< -0.25"}, {"substance": "HWGIETRLYRWPGCRGSRAR", "growth estimate": "< -0.25"}, {"substance": "HWSLSVTGRSSSARRARSGA", "growth estimate": "< -0.25"}, {"substance": "HWSRGGMDNGRKLGGSSANR", "growth estimate": "< -0.25"}, {"substance": "HWVSMGS", "growth estimate": "< -0.25"}, {"substance": "HYADNHILASFSSSDTVVRH", "growth estimate": "< -0.25"}, {"substance": "HYADSGFLERWTPCVTDSMY", "growth estimate": "< -0.25"}, {"substance": "HYAYIL", "growth estimate": "< -0.25"}, {"substance": "HYMPKFDRLRLL", "growth estimate": "< -0.25"}, {"substance": "HYQFINPHRGGLLQGRRPPS", "growth estimate": "< -0.25"}, {"substance": "HYRIGQIPRAHGMCSESRHL", "growth estimate": "< -0.25"}, {"substance": "HYSDIKSQDSGVVLGVGVLV", "growth estimate": "< -0.25"}, {"substance": "HYTSANRRVNK", "growth estimate": "< -0.25"}, {"substance": "HYWELTRDRSADWGLLPILL", "growth estimate": "< -0.25"}, {"substance": "HYWYQHKG", "growth estimate": "< -0.25"}, {"substance": "IADRKFL", "growth estimate": "< -0.25"}, {"substance": "IAFAAVFPWSPPSGVISNGA", "growth estimate": "< -0.25"}, {"substance": "IAFRNIIMAHRTKCGLTQ", "growth estimate": "< -0.25"}, {"substance": "IAG", "growth estimate": "< -0.25"}, {"substance": "IAGGDQNRVPRAISSRHQAM", "growth estimate": "< -0.25"}, {"substance": "IAGGP", "growth estimate": "< -0.25"}, {"substance": "IAGRPLGGMSEAWHLINKPI", "growth estimate": -0.229}, {"substance": "IAGRWMLVSEGCLEILAGEQ", "growth estimate": "< -0.25"}, {"substance": "IAGSFVGLYGVHRRHTSTQS", "growth estimate": "< -0.25"}, {"substance": "IAGVSSGGTFAVQCSGSSAG", "growth estimate": "< -0.25"}, {"substance": "IAKDGSWNGKATVKRQVSTR", "growth estimate": "< -0.25"}, {"substance": "IALQCAKFRMYRGNFVATTS", "growth estimate": "< -0.25"}, {"substance": "IALTGRSQYNAW", "growth estimate": "< -0.25"}, {"substance": "IAMQF", "growth estimate": "< -0.25"}, {"substance": "IAQQGDDFLERVGWPGPGCA", "growth estimate": "< -0.25"}, {"substance": "IAQSK", "growth estimate": "< -0.25"}, {"substance": "IARCRWTNCRIESRNYMFQD", "growth estimate": "< -0.25"}, {"substance": "IARGFLWGWEYSQSICLSEG", "growth estimate": -0.24}, {"substance": "IASCTRHHLCATCITA", "growth estimate": "< -0.25"}, {"substance": "IASFWLVQRYRSPHVLVISS", "growth estimate": "< -0.25"}, {"substance": "IASQRVIRMLSP", "growth estimate": -0.239}, {"substance": "IASRQCKSTVPIITWTAPEC", "growth estimate": "< -0.25"}, {"substance": "IATDVYGSISRGALVPNWCS", "growth estimate": "< -0.25"}, {"substance": "IATL", "growth estimate": "< -0.25"}, {"substance": "IATLEANKPSANAKGDTKPG", "growth estimate": "< -0.25"}, {"substance": "IATPFAEAHQITRAS", "growth estimate": "< -0.25"}, {"substance": "IATVSGMGTAGNAASERYQL", "growth estimate": "< -0.25"}, {"substance": "IAVCSGRRIDEYRRTGLYCT", "growth estimate": "< -0.25"}, {"substance": "IAVEWWTTKVRTLIVQSA", "growth estimate": "< -0.25"}, {"substance": "IAVLVPILLKASVQTGRPYG", "growth estimate": "< -0.25"}, {"substance": "IAWPAEVAHALMSVHALSGV", "growth estimate": "< -0.25"}, {"substance": "IAWVGGVRLWHGA", "growth estimate": "< -0.25"}, {"substance": "ICDG", "growth estimate": "< -0.25"}, {"substance": "ICDTRPILGQSGDDGQEVGT", "growth estimate": "< -0.25"}, {"substance": "ICGVSRLVICHRRFRAFRAD", "growth estimate": "< -0.25"}, {"substance": "ICLFTGLAAGCPASLCGGPP", "growth estimate": "< -0.25"}, {"substance": "ICPRYVVGGA", "growth estimate": "< -0.25"}, {"substance": "ICVPPVEEETREHAALTLVK", "growth estimate": "< -0.25"}, {"substance": "IDAVLRRPVIGVDEVSSGRY", "growth estimate": "< -0.25"}, {"substance": "IDDIHHDRRP", "growth estimate": "< -0.25"}, {"substance": "IDGIA", "growth estimate": "< -0.25"}, {"substance": "IDGRKSTPAVQILCGVEHTS", "growth estimate": "< -0.25"}, {"substance": "IDGVGDAWLCIDAGATLPFG", "growth estimate": "< -0.25"}, {"substance": "IDLLSGSLNQLEKLARGQGD", "growth estimate": "< -0.25"}, {"substance": "IDLTYTRGQKIGVASDGSVG", "growth estimate": "< -0.25"}, {"substance": "IDLYICVEGRQGEGS", "growth estimate": "< -0.25"}, {"substance": "IDMGGI", "growth estimate": "< -0.25"}, {"substance": "IDRIYYIPLKVQVALRL", "growth estimate": "< -0.25"}, {"substance": "IDRTG", "growth estimate": "< -0.25"}, {"substance": "IDSNRYTSRR", "growth estimate": "< -0.25"}]}]}
